Test results published in PubChem BioAssay AID720533 (National Center for Advancing Translational Sciences (NCATS), 2013).
Hit rate of the full screen: of about 18,000 compounds, about 750 (4.2%) were called active. Inconclusive results, whose numbers are uncertain, are shown with a selection of clear calls. The call rests on the fitted dose curve; tested in HEK293 cells. A potency beside an inconclusive call is a rough fit, not a confirmed value.

Assay: qHTS for Inhibitors of binding or entry into cells for Lassa Virus
Details: Lassa virus pseudotyped entry inhibition, cell-based qHTS; activity change, negative = inhibition: at 49.2 µM (top of the series) unless noted
On the % scale 0 is the no-effect control and ±100 the full control effect; potency means the concentration at half of the fitted maximal effect.

Row | SMILES | Potency | activity change, negative = inhibition
1 | NNc1ccccc1 | inconclusive: 22.4 µM [inhibitor, partial curve, poor fit] | –
2 | CN1CCc2cc(Cl)c(O)cc2[C@H]2c3ccccc3CC[C@@H]21 | inconclusive: 31.6 µM [inhibitor, single point] | –
3 | CCS(=O)(=O)c1ccc(OC)c(Nc2ncc(-c3cccc(F)c3)o2)c1 | – | inconclusive: -33.8% [inhibitor]
4 | NCCNCCNCCN | inconclusive: 35.5 µM [inhibitor, single point] | –
5 | COc1ccccc1CNc1nc(-c2ccccc2CN(C)C)nc2ccccc12 | inconclusive: 35.5 µM [inhibitor, single point] | –
6 | COc1ccc(COc2cc(-c3cccc(OC)c3)nc3ccc(N)cc23)cc1 | inconclusive: 7.94 µM [inhibitor, partial curve] | –
7 | Fc1ccc(N2CCN(Cc3ccc4c(c3)CN(Cc3cccn3-c3ncccn3)CCO4)CC2)cc1 | inconclusive: 22.4 µM [inhibitor, single point] | –
8 | Cc1ccccc1-n1c(C)nc2ccccc2c1=O | inconclusive: 891 nM [inhibitor, full curve, poor fit] and inactive | –
9 | O=C(Oc1ccccc1C(=O)O)c1ccccc1O | – | inactive: -4.71%
10 | CCN(CC)CCOC(=O)C(C)(c1ccccc1)c1ccccc1 | inconclusive: 35.5 µM [inhibitor, single point] | –
11 | CC(=O)C1=C(C)N(Cc2ccccc2)C(=O)NC1c1ccc(Br)cc1 (configuration not stated) | – | inconclusive: 15.6% [inhibitor] [at 8.59 µM]
12 | CCOC(=O)C1(C(C)C)Oc2ccccc2C(c2ccc(OC)cc2)=C1C(=O)OC (configuration not stated) | inconclusive: 20 µM [inhibitor, partial curve] | –
13 | C[C@H]1O[C@@H](n2cc(F)c(=O)[nH]c2=O)[C@H](O)[C@@H]1O | inconclusive: 35.5 µM [inhibitor, single point] | –
14 | CC(=O)OC1CC[C@]2(C)C(CC(OC(C)=O)[C@@]3(C)C4=CC(=O)OC(c5ccoc5)[C@]4(C)CCC23)C1(C)C (some centres not stated) | inconclusive: 35.5 µM [inhibitor, single point] | –
15 | COc1cccc2c1OC(=O)CC2c1ccc(C)cc1 (configuration not stated) | inconclusive: 20 µM [inhibitor, partial curve, poor fit] | –
16 | CCn1c(-c2ccccc2F)nc2cc(NC(C)=O)cc(C(=O)NC(c3ccccn3)C(F)(F)F)c21 (configuration not stated) | inconclusive: 8.91 µM [inhibitor, partial curve, poor fit] | –
17 | OC1OC[C@H](O)[C@@H](O)[C@H]1O (some centres not stated) | inconclusive: 35.5 µM [inhibitor, single point] | –
18 | COC(=O)[C@H](COC(C)(C)C)NC(=O)O[C@@H]1C(=O)c2ccc(OC)cc2O[C@H]1c1ccc2c(c1)OCO2 | inactive | –
19 | CN(C/C=C/c1ccccc1)Cc1cccc2ccccc12 | – | inactive: -16.2% [at 17.8 µM]
20 | Cc1cc(C(=O)Nc2ccccc2-c2nc(CNC(=O)C3COc4ccccc4O3)c(C)o2)c(C)o1 (configuration not stated) | – | inactive: 2.07%
21 | c1ccc(-c2nc(-c3cccc4ccccc34)c(Nc3ccc4ccccc4c3)o2)cc1 | – | inactive: 0.75%

In the list so far, these contain a furan ring, fused or not:
Row | SMILES | Potency | activity change, negative = inhibition
14 | CC(=O)OC1CC[C@]2(C)C(CC(OC(C)=O)[C@@]3(C)C4=CC(=O)OC(c5ccoc5)[C@]4(C)CCC23)C1(C)C (some centres not stated) | inconclusive: 35.5 µM [inhibitor, single point] | –
20 | Cc1cc(C(=O)Nc2ccccc2-c2nc(CNC(=O)C3COc4ccccc4O3)c(C)o2)c(C)o1 (configuration not stated) | – | inactive: 2.07%

Next part:

Row | SMILES | Potency | activity change, negative = inhibition
22 | COC(=O)[C@H](COC(C)(C)C)NC(=O)O[C@@H]1C(=O)c2cc(OC)ccc2O[C@H]1c1ccc(OC)c(Br)c1 | inconclusive: 5.01 µM [inhibitor, full curve] | –
24 | Cc1ccc(C(=O)NC2CCC2)cc1-c1ccc(C(=O)NCC2CC2)cc1 | inconclusive: 11.2 µM [inhibitor, partial curve, poor fit] | –
25 | O=c1cc(-c2cccc(O)c2)oc2ccc(O)cc12 | inconclusive: 31.6 µM [inhibitor, single point] | –
26 | COc1ccc2[nH]cc(CCNc3nc(-c4ccc(C(=O)N(C)C)cc4)nc4ccccc34)c2c1 | inconclusive: 25.1 µM [inhibitor, single point] | –
27 | C[C@@H]1O[C@@H](OC[C@H]2O[C@@H](Oc3c(-c4ccc(OCCO)c(OCCO)c4)oc4cc(OCCO)cc(O)c4c3=O)[C@H](O)[C@@H](O)[C@@H]2O)[C@H](O)[C@H](O)[C@H]1O | – | inactive: 19.7%
28 | O=C(O)c1ccc(-c2ccc3cc(C45CC6CC(CC(C6)C4)C5)c(O)cc3c2)cc1 | inconclusive: 31.6 µM [inhibitor, single point] | –
29 | c1nc2nc(Nc3ccc(N4CCOCC4)cc3)nc(NC3CCCCC3)c2[nH]1 | inconclusive: 25.1 µM [inhibitor, single point] | –
30 | Cc1ccccc1-c1nc(-n2ccnc2)c2ccccc2n1 | inconclusive: 35.5 µM [inhibitor, single point] | –
31 | CC(C(O)c1ccccc1)N(C)CCOC(c1ccccc1)c1ccccc1 (configuration not stated) | active: 14.1 µM | –
32 | C=CCCC1CN(Cc2ccc(OC)cc2)S(=O)(=O)c2c(Oc3ccc(OC)cc3)cccc2O1 (configuration not stated) | – | inactive: -19.6%
33 | O=C1c2ccccc2CC[C@H]1CNCCc1ccc(O)cc1 | inconclusive: 35.5 µM [inhibitor, single point] | –
34 | Oc1cc2c(cc1O)CN(C(=S)NCCc1ccc(Cl)cc1)CCC2 | inconclusive: 31.6 µM [inhibitor, partial curve] | –
35 | Cc1c(C)c2c(c(C)c1OC(=O)CCC(=O)O)CC[C@@](C)(CCC[C@H](C)CCC[C@H](C)CCCC(C)C)O2 | inconclusive: 15.8 µM [inhibitor, partial curve] | –
36 | Cc1ccc(C(=O)Nc2cnn(-c3ccc(C(=O)NCc4nc(-c5ccccc5)n[nH]4)cc3)c2)c(C)c1 | inconclusive: 35.5 µM [inhibitor, single point] | –
37 | NC[C@@H](O)c1ccc(O)c(O)c1 | inactive | –
38 | COc1cc(=O)n2c(c1C(=O)NCc1nonc1C)CCN(Cc1c[nH]c3ccccc13)CC2 | inconclusive: 28.2 µM [inhibitor, partial curve] | –
39 | COC(=O)CC1C(C)(C)C2(O)OC34CC2C(=O)[C@@]1(C)C3CC[C@]1(C)C4=CC(=O)OC1c1ccoc1 (some centres not stated) | inconclusive: 0.251 µM [inhibitor, full curve] | –
40 | NCCNc1cccc2ccccc12 | inconclusive: 31.6 µM [inhibitor, partial curve] | –
41 | COc1cccc([C@@H]2Oc3ccc(Br)cc3[C@H](O)[C@@H]2O)c1 | – | inactive: 12.3% [at 8.59 µM]
42 | COc1c(O)cc2oc(-c3ccc(O)cc3)cc(=O)c2c1O | inconclusive: 11.2 µM [inhibitor, partial curve] | –

Row | SMILES | Potency | activity change, negative = inhibition
43 | COc1ccc(CN2Cc3ccccc3OC(c3ccccc3OC)C2)cc1O (configuration not stated) | inconclusive: 15.8 µM [inhibitor, single point] | –
44 | COc1cccc(Nc2nccc(-c3cnn4ncccc34)n2)c1 | inconclusive: 0.56 µM [inhibitor, full curve, poor fit] | –
45 | COC(=O)/C(C)=C\CC12OC(C)(C)C3CC(C=C4C(=O)c5c(OC)c6c(c(CC=C(C)C)c5OC431)OC(C)(CCC=C(C)C)C=C6)C2=O (configuration not stated) | active: 4.47 µM | –
46 | COc1cc(-c2cccc(OC)c2OC)cc2c1OCCN(Cc1cn[nH]c1-c1ccc(Cl)cc1)C2 | inconclusive: 11.2 µM [inhibitor, partial curve] | –
47 | O=C(O)Cc1cccc(OCCCN(Cc2cccc(C(F)(F)F)c2Cl)CC(c2ccccc2)c2ccccc2)c1 | inconclusive: 22.4 µM [inhibitor, single point] | –
48 | O=c1[nH]c(=O)c2nc3ccccc3nc2[nH]1 | – | inactive: 4.84%
49 | COC(=O)c1ccc2[se]c(CC3CCCCC3)c(I)c2c1 | inconclusive: 11.2 µM [inhibitor, single point] | –
50 | COc1ccc(-c2nc3cc(C)ccc3cc2CN(C(=O)c2cccs2)C2CC2)cc1OC | inconclusive: 8.91 µM [inhibitor, partial curve] | –
51 | O=c1[nH]c2cc(C(F)(F)F)ccc2n1-c1cc(C(F)(F)F)ccc1O | inactive | –
52 | COc1ccc(-c2oc3cc(OC)ccc3c(=O)c2O)cc1 | inconclusive: 12.6 µM [inhibitor, full curve] | –
53 | CCN(CC)CCOC(=O)c1ccc(N)cc1 | inactive | –
54 | CC(NC(=O)c1cc(F)ccc1F)c1nnc2n1CCN(Cc1ccc(-c3ccccc3)cc1)CC2 (configuration not stated) | inconclusive: 15.8 µM [inhibitor, single point] | –
55 | CO[C@H]1[C@@H](O)C[C@H](O[C@H]2[C@@H](O)C[C@H](O[C@H]3[C@@H](O)C[C@H](O[C@H]4CC[C@@]5(C)[C@H](CC[C@@H]6[C@@H]5C[C@@H](O)[C@]5(C)[C@@H](C7=CC(=O)OC7)CC[C@]65O)C4)O[C@@H]3C)O[C@@H]2C)O[C@@H]1C | inconclusive: 14.1 µM [inhibitor, full curve, poor fit] | –
56 | CCN(CC)CCO[C@H]1CC[C@@]2(C)C(=CC[C@@H]3[C@H]2CC[C@]2(C)C(=O)CC[C@H]32)C1 | – | inactive: -22.6%
57 | C=CCO[C@@H](Cn1ccnc1)c1ccc(Cl)cc1Cl | – | inactive: -0.808% [at 17.8 µM]
58 | CC(C)C[C@@H](COCc1cccc(Cl)c1)N1CCN(C(=O)c2cccc(C(F)(F)F)c2)CCC1=O | inconclusive: 15.8 µM [inhibitor, single point] | –
59 | O=C1NC(=O)c2c1c1c3ccccc3n3c1c1c2c2ccccc2n1C1CCC3O1 | inconclusive: 1.41 µM [inhibitor, full curve] | –
60 | COc1ccccc1-c1ccc(C(=O)N(C)CC2COCCO2)c(N2CCN(c3ccccc3F)CC2)n1 (configuration not stated) | inconclusive: 35.5 µM [inhibitor, single point] | –
61 | NC(Cc1ccccc1)C(=O)O (configuration not stated) | – | inactive: 4.65%
62 | O=C(NCCCN1CCCCCC1)C(c1ccccc1)C1CCCCC1 (configuration not stated) | inconclusive: 15.8 µM [inhibitor, partial curve, poor fit] | –
